The values below come from PMC3387134.

The chains behind the UniProt entries cited, without tags or fusion partners. Where a name states a change or a piece, a line headed by the entry shows the natural chain unless it says otherwise.
UniProt P49841: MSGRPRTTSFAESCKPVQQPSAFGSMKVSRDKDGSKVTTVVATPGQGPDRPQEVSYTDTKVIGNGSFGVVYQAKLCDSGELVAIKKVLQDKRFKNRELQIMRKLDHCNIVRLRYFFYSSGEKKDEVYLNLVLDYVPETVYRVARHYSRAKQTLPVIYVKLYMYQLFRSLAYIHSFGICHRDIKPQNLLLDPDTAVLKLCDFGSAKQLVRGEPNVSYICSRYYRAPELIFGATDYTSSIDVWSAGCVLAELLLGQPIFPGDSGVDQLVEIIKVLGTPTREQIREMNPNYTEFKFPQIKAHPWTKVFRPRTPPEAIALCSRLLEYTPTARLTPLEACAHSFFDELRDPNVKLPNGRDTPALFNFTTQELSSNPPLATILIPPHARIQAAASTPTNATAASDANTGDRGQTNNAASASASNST

In experiment [1] the target is T1, Flag-tagged 14-3-3σ (UniProt O70456).
T1 sequence: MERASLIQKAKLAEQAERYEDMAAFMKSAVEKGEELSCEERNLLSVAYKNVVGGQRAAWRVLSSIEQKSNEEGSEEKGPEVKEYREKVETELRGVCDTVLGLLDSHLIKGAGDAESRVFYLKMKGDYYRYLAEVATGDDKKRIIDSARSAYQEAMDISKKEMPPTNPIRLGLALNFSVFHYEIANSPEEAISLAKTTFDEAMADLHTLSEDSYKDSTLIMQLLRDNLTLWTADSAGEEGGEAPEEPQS
The experiment in a line: co-IP; CCE cells co-transfected with 14-3-3σ-Flag and GSK-3β WT, S9A or T309A, RIPA lysate; IP with anti-Flag antibody, Western blot with anti-GSK-3β antibody.

For experiment [2], the target named is T1, Flag-tagged 14-3-3σ. The experiment in a line: co-IP; mESCs (CCE; also R1 and D3 for 14-3-3σ) transfected with a Flag-tagged 14-3-3 isoform, lysed in RIPA buffer; IP with anti-Flag antibody, Western blot for endogenous proteins. On the technique in general: A western blot detects proteins with antibodies after separation by electrophoresis.

These are yes or no findings as the source states them, for the method shown. Binding seen in cells or lysates may run through a third protein. For some assays here: Binding can be weak; no strength is given. Tags and fused reporters may be left off the sequences shown.

For the substance “GSK-3β Thr309A mutant (from UniProt P49841) (enzyme)”, the binding entry in experiment [1] is reported as “binds”.
As for “axin, endogenous (mouse (endogenous in CCE))”, in experiment [2], the binding result is “no binding”.
